Data from article PMC3656112.
These are yes or no findings as the source states them, for the method shown. For part of these data: Binding seen in cells or lysates may run through a third protein. For part of these data: A result given as binding can be weak or reduced; the word gives no strength. Sequences can lack the tags named with a protein.

How the values were obtained:
[1] = biological target: TuMV 6K2 protein, bait fusion from pBT3-STE-6K2 (Turnip mosaic virus); assay: two-hybrid; DUAL membrane system (a variant of the yeast two-hybrid assay for membrane proteins); bait in pBT3-STE, prey in pPR3-N; yeast NMY51; growth on SD/-Leu/-Trp/-His/-Ade at 30°C for 2 days
[2] = biological target: 6K2-HA (Turnip mosaic virus); assay: co-IP; two tagged proteins transiently coexpressed in N. benthamiana leaves for 48 h; cleared lysate in 50 mM Tris pH 7.5, 150 mM NaCl, 10% glycerol, 0.1% Nonidet P-40, 5 mM DTT; immunoprecipitated with HA antibodies and protein G Sepharose at 4°C; detected by His antibodies
[3] = biological target: 6K2-HA (Turnip mosaic virus); assay: co-IP; Syp71-His, 6K2-HA and untagged Vap27-1 transiently coexpressed together in N. benthamiana leaves; cleared lysate immunoprecipitated with HA antibodies; detected by His antibodies

B1: Syp71, prey fusion from pPR3-N-Syp71 (protein, UniProt Q9SF29 1-266)
chain: MTVIDILTRVDSICKKYDKYDVDKQREANISGDDAFARLYGAFETQIETALEKAELVTKEKNRAAAVAMNAEIRRTKARLSEEVPKLQRLAVKRVKGLTTEELAARNDLVLALPARIEAIPDGTAGGPKSTSAWTPSSTTSRPDIKFDSDGRFDDDYFQESNESSQFRQEYEMRKIKQEQGLDMISEGLDALKNMASDMNEELDRQVPLMDEIDTKVDRATSDLKNTNVRLKDTVNQLRSSRNFCIDIVLLCIVLGIAAYLYNVLK
B1 was tested. Which binding [1] did it give?
Its binding is “no binding”.

B2: Vap27-1-His (protein, UniProt Q8VZ95 1-256)
chain: MSNIDLIGMSNRDLIGMSNSELLTVEPLDLQFPFELKKQISCSLYLTNKTDNNVAFKVKTTNPKKYCVRPNTGVVLPRSTCEVLVTMQAQKEAPSDMQCKDKFLLQGVIASPGVTAKEVTPEMFSKEAGHRVEETKLRVTYVAPPRPPSPVHEGSEEGSSPRASVSDNGHGSEFSFERFIVDNKAGHQENTSEARALITKLTEEKQSAIQLNNRLQRELDQLRRESKKSQSGGIPFMYVLLVGLIGLILGYIMKRT
B2 was tested. Which binding [2] did it give?
Its binding is “binds”.

B3: untagged Vap27-1 (protein, UniProt Q8VZ95 1-256)
chain: MSNIDLIGMSNRDLIGMSNSELLTVEPLDLQFPFELKKQISCSLYLTNKTDNNVAFKVKTTNPKKYCVRPNTGVVLPRSTCEVLVTMQAQKEAPSDMQCKDKFLLQGVIASPGVTAKEVTPEMFSKEAGHRVEETKLRVTYVAPPRPPSPVHEGSEEGSSPRASVSDNGHGSEFSFERFIVDNKAGHQENTSEARALITKLTEEKQSAIQLNNRLQRELDQLRRESKKSQSGGIPFMYVLLVGLIGLILGYIMKRT
B3 was tested. Which binding [3] did it give?
The binding was “binds”.
